Measured values as given in US4558058A, “Substituted 1,4-dihydropyridines and their use as medicaments” (Cassella Aktiengesellschaft, priority 1982, dated 1985).
pIC50: −log10 of the molar value.

Tested on: helical strips of pulmonary artery of guinea pigs
Assay: calcium-antagonistic action: inhibition of CaCl2-induced contraction of potassium-depolarised helical strips of pulmonary artery
Type: cell-based
Conditions: Cavia porcellus; guinea pig pulmonary artery strips, calcium-free Tyrode's solution, 40 mmol potassium, 0.5 mmol CaCl2; mean value from 4 to 6 strips; read-out: IC50 (concentration of the test substance which inhibits contraction by 50%)
Procedure: This entailed helical strips of pulmonary artery of guinea pigs being equilibrated in calcium-free Tyrode's solution and depolarised with 40 mmol of potassium. Addition of 0.5 mmol of CaCl2 then initiates contraction. The relaxant action of the test substance is determined by cumulative addition of concentrations increasing in steps of 1/2 log 10.

In the case of `COC(=O)C1=C(C)NC(C)=C(C(=O)OC)C1c1ccccc1[N+](=O)[O-]` [nifedipine, dimethyl 1,4-dihydro-2,6-dimethyl-4-(2-nitrophenyl)pyridine-3,5-dicarboxylate, reference compound], the pIC50 was 8.52.
